Assay results: PMC5095010
Results are given in words; binding and its absence hold for the method and conditions named. Binding seen in cells or lysates may run through a third protein. Some binding calls cover weakened binding; strength is not graded here.

Amino acid sequences for entries named in this document (tags omitted).
UniProt O15554: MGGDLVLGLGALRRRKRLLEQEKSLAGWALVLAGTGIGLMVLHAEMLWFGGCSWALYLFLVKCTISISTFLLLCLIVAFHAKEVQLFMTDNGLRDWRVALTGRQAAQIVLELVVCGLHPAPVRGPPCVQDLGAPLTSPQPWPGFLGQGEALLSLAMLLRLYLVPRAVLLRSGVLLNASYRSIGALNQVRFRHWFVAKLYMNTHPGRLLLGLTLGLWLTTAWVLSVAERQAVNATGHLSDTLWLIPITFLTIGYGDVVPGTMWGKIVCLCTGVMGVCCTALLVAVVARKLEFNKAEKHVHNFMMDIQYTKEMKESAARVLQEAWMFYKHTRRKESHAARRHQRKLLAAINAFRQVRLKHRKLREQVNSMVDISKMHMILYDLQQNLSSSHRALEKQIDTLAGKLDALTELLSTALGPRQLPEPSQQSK
UniProt P48995: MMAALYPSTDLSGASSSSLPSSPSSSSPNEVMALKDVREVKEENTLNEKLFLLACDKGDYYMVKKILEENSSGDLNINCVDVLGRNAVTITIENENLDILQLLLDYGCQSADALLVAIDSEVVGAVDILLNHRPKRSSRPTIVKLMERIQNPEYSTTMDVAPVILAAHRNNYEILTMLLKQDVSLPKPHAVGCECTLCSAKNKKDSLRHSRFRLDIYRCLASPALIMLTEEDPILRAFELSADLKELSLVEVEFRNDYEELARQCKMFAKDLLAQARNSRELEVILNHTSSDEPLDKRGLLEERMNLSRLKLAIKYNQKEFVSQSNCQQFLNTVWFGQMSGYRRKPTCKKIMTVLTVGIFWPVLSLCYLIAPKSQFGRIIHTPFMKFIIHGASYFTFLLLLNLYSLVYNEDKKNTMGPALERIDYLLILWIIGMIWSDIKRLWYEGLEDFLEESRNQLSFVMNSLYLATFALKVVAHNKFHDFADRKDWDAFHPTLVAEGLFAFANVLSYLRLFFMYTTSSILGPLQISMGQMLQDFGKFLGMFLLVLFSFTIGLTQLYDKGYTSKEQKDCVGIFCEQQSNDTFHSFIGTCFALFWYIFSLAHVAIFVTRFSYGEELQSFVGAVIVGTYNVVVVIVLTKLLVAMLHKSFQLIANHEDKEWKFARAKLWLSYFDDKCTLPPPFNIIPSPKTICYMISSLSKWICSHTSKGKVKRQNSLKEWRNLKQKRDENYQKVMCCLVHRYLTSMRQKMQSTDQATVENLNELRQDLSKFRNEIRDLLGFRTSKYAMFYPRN

Target: intermediate-conductance Ca2+-activated K+ channel KCa3.1 (human (endogenous in MCF-7)) (UniProt O15554)
Assay: co-IP; 1 mg MCF-7 lysate in RIPA buffer (1% Triton X-100, 1% sodium deoxycholate, 150 mM NaCl, 50 mM Tris-HCl pH 7.4, 2 mM EDTA), precleared, incubated overnight with 3 ug anti-KCa3.1 antibody, protein A and G magnetic beads; Western blot for TRPC1 and KCa3.1; cells treated or not with 5 mg/ml methyl-beta-cyclodextrin for 24 h (treatment: 52.8% decrease of the pulled-down amount of TRPC1)

TRPC1 channel (from UniProt P48995 1-793)
binding: binds
